{
  "sequences": {"note": "Chains of the proteins cited; added tags and fusions are not shown.", "UniProt Q8NCE0": "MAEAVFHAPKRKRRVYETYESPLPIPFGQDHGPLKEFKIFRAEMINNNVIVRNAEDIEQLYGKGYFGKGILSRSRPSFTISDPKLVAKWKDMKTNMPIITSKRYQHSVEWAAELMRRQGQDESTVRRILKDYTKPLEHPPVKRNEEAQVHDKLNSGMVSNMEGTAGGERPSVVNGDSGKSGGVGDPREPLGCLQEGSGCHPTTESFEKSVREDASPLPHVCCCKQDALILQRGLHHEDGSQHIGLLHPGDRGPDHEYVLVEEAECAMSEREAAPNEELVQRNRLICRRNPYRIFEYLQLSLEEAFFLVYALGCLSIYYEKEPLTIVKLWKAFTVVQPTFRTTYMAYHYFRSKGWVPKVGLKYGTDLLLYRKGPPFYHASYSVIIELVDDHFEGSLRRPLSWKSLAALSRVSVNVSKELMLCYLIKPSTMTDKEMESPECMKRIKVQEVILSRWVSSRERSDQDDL"},
  "source": "patent US20050053985A1",
  "key": {"HsSen54 (human)": {"biological_target": "T1, HsSen54 (human) (UniProt Q7Z6J9)", "T1 sequence (looked up)": "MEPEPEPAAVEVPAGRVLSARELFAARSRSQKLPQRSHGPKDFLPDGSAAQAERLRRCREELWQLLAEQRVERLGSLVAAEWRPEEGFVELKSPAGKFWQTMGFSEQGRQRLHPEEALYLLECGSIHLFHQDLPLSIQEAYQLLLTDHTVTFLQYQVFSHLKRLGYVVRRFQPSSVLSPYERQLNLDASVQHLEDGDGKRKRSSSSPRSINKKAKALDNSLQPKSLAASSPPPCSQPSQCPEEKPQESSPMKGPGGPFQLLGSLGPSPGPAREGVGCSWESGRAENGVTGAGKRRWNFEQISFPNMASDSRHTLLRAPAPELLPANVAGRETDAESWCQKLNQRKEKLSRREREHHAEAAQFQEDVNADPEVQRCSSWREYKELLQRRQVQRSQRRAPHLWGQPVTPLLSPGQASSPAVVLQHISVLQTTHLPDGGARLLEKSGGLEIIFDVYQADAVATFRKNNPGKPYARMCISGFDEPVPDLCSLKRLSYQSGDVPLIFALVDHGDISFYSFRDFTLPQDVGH", "experiment": "co-purification (anti-Flag then Ni beads), SDS-PAGE, silver staining, mass spectrometry"}, "HsClp1 (human)": {"biological_target": "T2, HsClp1 (human) (UniProt Q92989)", "T2 sequence (looked up)": "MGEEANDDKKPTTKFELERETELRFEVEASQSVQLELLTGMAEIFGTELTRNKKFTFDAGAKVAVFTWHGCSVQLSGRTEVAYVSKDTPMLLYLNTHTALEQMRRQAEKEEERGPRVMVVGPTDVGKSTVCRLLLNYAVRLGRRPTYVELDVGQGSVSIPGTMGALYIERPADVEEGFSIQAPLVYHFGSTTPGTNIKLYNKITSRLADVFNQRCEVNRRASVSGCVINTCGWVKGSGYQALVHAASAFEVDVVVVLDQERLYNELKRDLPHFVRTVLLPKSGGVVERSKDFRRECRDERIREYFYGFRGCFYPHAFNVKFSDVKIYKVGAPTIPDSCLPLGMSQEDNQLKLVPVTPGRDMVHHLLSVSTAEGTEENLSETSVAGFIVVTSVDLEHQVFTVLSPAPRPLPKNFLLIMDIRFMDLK", "experiment": "co-purification (anti-Flag then Ni beads), SDS-PAGE, silver staining, mass spectrometry"}},
  "note": "No constants are given. Whether binding was seen depends on the method and setting. In cells and extracts the contact can be indirect. A yes stands for co-enrichment or nearness to the bait. Other partners may have been found.",
  "data": [
    {"substance": "His-Flag-HsSen2 (from UniProt Q8NCE0 1-465)", "values": [
      {"measurement": "binding", "setting": "HsSen54 (human)", "result": "binds"},
      {"measurement": "binding", "setting": "HsClp1 (human)", "result": "binds"}
    ]}
  ]
}
